Experimental data from the supplement of paper PMC7661543.
± gives the standard deviation of the averaged measurements. The effect of the compound repeats well; differences between the knockouts mostly do not.

System: SKBR3
Test: relative cell number vs DMSO control (72 h) (% of DMSO); higher = less growth inhibition (more cells)
Protocol: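 QMAP-Seq: a pool of 5 breast cancer cell lines (ZR-75-1, SKBR3, HCC-38, MDA-MB-231, BT-20), each carrying 12 doxycycline-inducible Cas9 sgRNA perturbations (11 knockouts plus non-targeting sgNT), was treated with compounds for 72 h at four 10-fold doses (10 nM-10 uM or 1 nM-1 uM range). Barcodes were amplified and sequenced, and cell number was interpolated from 293T spike-in standard curves. The result is expressed as % of the median of DMSO wells. Two biological replicates.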

Cc1ccc(NC(=O)c2ccc(CN3CCN(C)CC3)cc2)cc1Nc1nc(-c2cccnc2)cs1 [Masitinib]
Conditions	relative cell number
sgRNA knockout: sgATF3, 10 nM	100 ± 30
sgRNA knockout: sgATF3, 100 nM	95.4 ± 34
sgRNA knockout: sgATF3, 1000 nM	97.4 ± 36
sgRNA knockout: sgATF3, 10000 nM	65.7 ± 4.3
sgRNA knockout: sgATF4, 10 nM	92.4 ± 21
sgRNA knockout: sgATF4, 100 nM	87 ± 8.6
sgRNA knockout: sgATF4, 1000 nM	82.5 ± 24
sgRNA knockout: sgATF4, 10000 nM	80.9 ± 5
sgRNA knockout: sgATF6, 10 nM	94.3 ± 12
sgRNA knockout: sgATF6, 100 nM	75 ± 30
sgRNA knockout: sgATF6, 1000 nM	100 ± 38
sgRNA knockout: sgATF6, 10000 nM	69.2 ± 9.3
sgRNA knockout: sgATG7, 10 nM	75.2 ± 11
sgRNA knockout: sgATG7, 100 nM	114 ± 44
sgRNA knockout: sgATG7, 1000 nM	101 ± 40
sgRNA knockout: sgATG7, 10000 nM	77.8 ± 2.3
sgRNA knockout: sgERN1, 10 nM	113 ± 18
sgRNA knockout: sgERN1, 100 nM	102 ± 7.3
sgRNA knockout: sgERN1, 1000 nM	104 ± 37
sgRNA knockout: sgERN1, 10000 nM	83.5 ± 22
sgRNA knockout: sgHSF1, 10 nM	99.9 ± 32
sgRNA knockout: sgHSF1, 100 nM	94.7 ± 25
sgRNA knockout: sgHSF1, 1000 nM	90.1 ± 36
sgRNA knockout: sgHSF1, 10000 nM	81.3 ± 6.6
sgRNA knockout: sgHSF2, 10 nM	96.1 ± 20
sgRNA knockout: sgHSF2, 100 nM	76.6 ± 7.5
sgRNA knockout: sgHSF2, 1000 nM	104 ± 27
sgRNA knockout: sgHSF2, 10000 nM	74.5 ± 12
sgRNA knockout: sgKEAP1, 10 nM	111 ± 5
sgRNA knockout: sgKEAP1, 100 nM	76.4 ± 1.6
sgRNA knockout: sgKEAP1, 1000 nM	79.3 ± 21
sgRNA knockout: sgKEAP1, 10000 nM	88.5 ± 2.5
sgRNA knockout: sgNFE2L2, 10 nM	82.4 ± 5.4
sgRNA knockout: sgNFE2L2, 100 nM	93.6 ± 7.7
sgRNA knockout: sgNFE2L2, 1000 nM	79.6 ± 7.3
sgRNA knockout: sgNFE2L2, 10000 nM	90.3 ± 17
sgRNA knockout: sgSLC35F2, 10 nM	87.3 ± 30
sgRNA knockout: sgSLC35F2, 100 nM	96.5 ± 22
sgRNA knockout: sgSLC35F2, 1000 nM	74.7 ± 16
sgRNA knockout: sgSLC35F2, 10000 nM	83.1 ± 6.4
sgRNA knockout: sgXBP1, 10 nM	105 ± 8.3
sgRNA knockout: sgXBP1, 100 nM	79.4 ± 28
sgRNA knockout: sgXBP1, 1000 nM	89.1 ± 7.5
sgRNA knockout: sgXBP1, 10000 nM	81.9 ± 18

Cc1sc2c(c1C)C(c1ccc(Cl)cc1)=N[C@@H](CC(=O)OC(C)(C)C)c1nnc(C)n1-2 [(+)-JQ1]
Conditions	relative cell number
sgRNA knockout: sgATF3, 10 nM	117 ± 29
sgRNA knockout: sgATF3, 100 nM	119 ± 13
sgRNA knockout: sgATF3, 1000 nM	94.7 ± 3.2
sgRNA knockout: sgATF3, 10000 nM	71.3 ± 3.7
sgRNA knockout: sgATF4, 10 nM	105 ± 7.3
sgRNA knockout: sgATF4, 100 nM	125 ± 16
sgRNA knockout: sgATF4, 1000 nM	113 ± 10
sgRNA knockout: sgATF4, 10000 nM	75.5 ± 8.4
sgRNA knockout: sgATF6, 10 nM	113 ± 6.2
sgRNA knockout: sgATF6, 100 nM	104 ± 7.1
sgRNA knockout: sgATF6, 1000 nM	101 ± 18
sgRNA knockout: sgATF6, 10000 nM	57.5 ± 0.3
sgRNA knockout: sgATG7, 10 nM	91.8 ± 1.3
sgRNA knockout: sgATG7, 100 nM	119 ± 0.49
sgRNA knockout: sgATG7, 1000 nM	85.6 ± 12
sgRNA knockout: sgATG7, 10000 nM	52.6 ± 2.7
sgRNA knockout: sgERN1, 10 nM	122 ± 24
sgRNA knockout: sgERN1, 100 nM	115 ± 19
sgRNA knockout: sgERN1, 1000 nM	99.6 ± 11
sgRNA knockout: sgERN1, 10000 nM	73 ± 19
sgRNA knockout: sgHSF1, 10 nM	71.1 ± 6.8
sgRNA knockout: sgHSF1, 100 nM	128 ± 18
sgRNA knockout: sgHSF1, 1000 nM	105 ± 12
sgRNA knockout: sgHSF1, 10000 nM	69.4 ± 13
sgRNA knockout: sgHSF2, 10 nM	102 ± 2.2
sgRNA knockout: sgHSF2, 100 nM	106 ± 28
sgRNA knockout: sgHSF2, 1000 nM	99 ± 1.3
sgRNA knockout: sgHSF2, 10000 nM	66.4 ± 1.5
sgRNA knockout: sgKEAP1, 10 nM	118 ± 17
sgRNA knockout: sgKEAP1, 100 nM	96.5 ± 1.3
sgRNA knockout: sgKEAP1, 1000 nM	92.1 ± 1.1
sgRNA knockout: sgKEAP1, 10000 nM	47.58 ± 0.083
sgRNA knockout: sgNFE2L2, 10 nM	104.2 ± 0.9
sgRNA knockout: sgNFE2L2, 100 nM	111 ± 6.4
sgRNA knockout: sgNFE2L2, 1000 nM	91.6 ± 27
sgRNA knockout: sgNFE2L2, 10000 nM	59.9 ± 1.2
sgRNA knockout: sgSLC35F2, 10 nM	103 ± 13
sgRNA knockout: sgSLC35F2, 100 nM	105 ± 9.6
sgRNA knockout: sgSLC35F2, 1000 nM	94.6 ± 22
sgRNA knockout: sgSLC35F2, 10000 nM	50.2 ± 6.7
sgRNA knockout: sgXBP1, 10 nM	108 ± 3.8
sgRNA knockout: sgXBP1, 100 nM	102 ± 9.8
sgRNA knockout: sgXBP1, 1000 nM	89.7 ± 22
sgRNA knockout: sgXBP1, 10000 nM	73.7 ± 5
